Experimental data taken from US6436654 (PHARMACIA AND UPJOHN, dated 2002).

Protein sequences, listed by entry. Tags and fused reporters are not part of them.
UniProt Q16665, whole entry: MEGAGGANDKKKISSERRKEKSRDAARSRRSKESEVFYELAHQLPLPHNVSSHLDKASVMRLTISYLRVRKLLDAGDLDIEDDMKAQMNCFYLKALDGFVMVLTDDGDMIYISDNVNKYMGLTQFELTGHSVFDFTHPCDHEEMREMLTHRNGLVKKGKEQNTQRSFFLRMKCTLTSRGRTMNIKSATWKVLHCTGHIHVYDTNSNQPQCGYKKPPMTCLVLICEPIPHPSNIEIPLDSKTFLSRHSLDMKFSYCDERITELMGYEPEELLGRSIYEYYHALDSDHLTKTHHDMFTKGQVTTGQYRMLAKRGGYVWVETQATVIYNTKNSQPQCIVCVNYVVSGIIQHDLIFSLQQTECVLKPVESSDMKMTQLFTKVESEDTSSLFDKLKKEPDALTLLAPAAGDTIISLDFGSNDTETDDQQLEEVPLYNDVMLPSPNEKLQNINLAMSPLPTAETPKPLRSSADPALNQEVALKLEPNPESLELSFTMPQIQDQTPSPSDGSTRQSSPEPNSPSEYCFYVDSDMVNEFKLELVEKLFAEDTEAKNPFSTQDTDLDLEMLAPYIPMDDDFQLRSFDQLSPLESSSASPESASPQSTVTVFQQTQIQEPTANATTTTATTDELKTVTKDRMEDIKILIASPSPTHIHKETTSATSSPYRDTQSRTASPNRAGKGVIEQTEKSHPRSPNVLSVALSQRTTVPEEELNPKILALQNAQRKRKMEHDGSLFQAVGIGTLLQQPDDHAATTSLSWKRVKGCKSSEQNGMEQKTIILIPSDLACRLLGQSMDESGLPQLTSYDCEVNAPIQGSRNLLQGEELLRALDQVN

Key:
Assay in all cases: cell-based or functional assay
human HIF-1α = human HIF-1α (human, UniProt Q16665 1-826)
GAL4/HIF 531-584 = GAL4/HIF 531-584 (human, UniProt P04386 1-147 (Saccharomyces cerevisiae entry), [35S]methionine-labeled (in vitro translated) in the pull-down assay)
GAL4/HIF 776-826 = GAL4/HIF 776-826 (human, UniProt P04386 1-147 (Saccharomyces cerevisiae entry), [35S]methionine-labeled (in vitro translated) in the pull-down assay)

B1: SRC-1 (full-length) (other, human, UniProt Q15788 1-1441, looked up)
chain: MSGLGDSSSDPANPDSHKRKGSPCDTLASSTEKRRREQENKYLEELAELLSANISDIDSLSVKPDKCKILKKTVDQIQLMKRMEQEKSTTDDDVQKSDISSSSQGVIEKESLGPLLLEALDGFFFVVNCEGRIVFVSENVTSYLGYNQEELMNTSVYSILHVGDHAEFVKNLLPKSLVNGVPWPQEATRRNSHTFNCRMLIHPPDEPGTENQEACQRYEVMQCFTVSQPKSIQEDGEDFQSCLICIARRLPRPPAITGVESFMTKQDTTGKIISIDTSSLRAAGRTGWEDLVRKCIYAFFQPQGREPSYARQLFQEVMTRGTASSPSYRFILNDGTMLSAHTKCKLCYPQSPDMQPFIMGIHIIDREHSGLSPQDDTNSGMSIPRVNPSVNPSISPAHGVARSSTLPPSNSNMVSTRINRQQSSDLHSSSHSNSSNSQGSFGCSPGSQIVANVALNQGQASSQSSNPSLNLNNSPMEGTGISLAQFMSPRRQVTSGLATRPRMPNNSFPPNISTLSSPVGMTSSACNNNNRSYSNIPVTSLQGMNEGPNNSVGFSASSPVLRQMSSQNSPSRLNIQPAKAESKDNKEIASILNEMIQSDNSSSDGKPLDSGLLHNNDRLSDGDSKYSQTSHKLVQLLTTTAEQQLRHADIDTSCKDVLSCTGTSNSASANSSGGSCPSSHSSLTERHKILHRLLQEGSPSDITTLSVEPDKKDSASTSVSVTGQVQGNSSIKLELDASKKKESKDHQLLRYLLDKDEKDLRSTPNLSLDDVKVKVEKKEQMDPCNTNPTPMTKPTPEEIKLEAQSQFTADLDQFDQLLPTLEKAAQLPGLCETDRMDGAVTSVTIKSEILPASLQSATARPTSRLNRLPELELEAIDNQFGQPGTGDQIPWTNNTVTAINQSKSEDQCISSQLDELLCPPTTVEGRNDEKALLEQLVSFLSGKDETELAELDRALGIDKLVQGGGLDVLSERFPPQQATPPLIMEERPNLYSQPYSSPSPTANLPSPFQGMVRQKPSLGTMPVQVTPPRGAFSPGMGMQPRQTLNRPPAAPNQLRLQLQQRLQGQQQLIHQNRQAILNQFAATAPVGINMRSGMQQQITPQPPLNAQMLAQRQRELYSQQHRQRQLIQQQRAMLMRQQSFGNNLPPSSGLPVQMGNPRLPQGAPQQFPYPPNYGTNPGTPPASTSPFSQLAANPEASLANRNSMVSRGMTGNIGGQFGTGINPQMQQNVFQYPGAGMVPQGEANFAPSLSPGSSMVPMPIPPPQSSLLQQTPPASGYQSPDMKAWQQGAIGNNNVFSQAVQNQPTPAQPGVYNNMSITVSMAGGNTNVQNMNPMMAQMQMSSLQMPGMNTVCPEQINDPALRHTGLYCNQLSSTDLLKTEADGTQQVQQVQVFADVQCTVNLVGGDPYLNQPGPLGTQKPTSGPQTPQAQQKSLLQQLLTE
modifications: [35S]methionine-labeled (in vitro translated) in the GST precipitation assay
Human HIF-1α
  HRE-dependent reporter gene activity in COS7 cells, normoxia: ~3 fold
GAL4/HIF 531-584
  GAL4-responsive reporter gene activity in COS7 cells, hypoxia: 1.5 fold
GAL4/HIF 776-826
  GAL4-responsive reporter gene activity in COS7 cells: 17 fold
